The test system of the assay is P388 leukemia ip, CD2F1 mice, survival T/C. As to the kind of experiment: NCI In Vivo Anticancer Drug Screen. Data for tumor model P388 Leukemia (intraperitoneal) in CD2F1 (CDF1) mice. The note with it: T/C endpoint: median survival time, higher T/C = longer survival.
The mark [1] stands for this setting: dose: 240.0 mg/kg/injection, schedule: Q01DX005 (ip), vehicle: saline with Tween-80.
[2] abbreviates: dose: 200.0 mg/kg/injection, schedule: Q01DX009 (ip), vehicle: saline.
Where [3] appears, read: dose: 100.0 mg/kg/injection, schedule: Q01DX001 (ip), vehicle: saline with Tween-80.
Where [4] appears, read: dose: 15.0 mg/kg/injection, schedule: Q01DX005 (ip), vehicle: saline with Tween-80.
Setting [5] is: dose: 30.0 mg/kg/injection, schedule: Q01DX005 (ip), vehicle: saline with Tween-80.
Where [6] appears, read: dose: 120.0 mg/kg/injection, schedule: Q01DX005 (ip), vehicle: Klucel (hydroxypropylcellulose) (HPC).
Where [7] appears, read: dose: 100.0 mg/kg/injection, schedule: Q01DX009 (ip), vehicle: saline.
Where [8] appears, read: dose: 50.0 mg/kg/injection, schedule: Q01DX009 (ip), vehicle: saline with Tween-80.
[9] abbreviates: dose: 100.0 mg/kg/injection, schedule: Q01DX009 (ip), vehicle: saline with Tween-80.
The mark [10] stands for this setting: dose: 200.0 mg/kg/injection, schedule: Q01DX009 (ip), vehicle: saline with Tween-80.
Where [11] appears, read: dose: 200.0 mg/kg/injection, schedule: Q01DX005 (ip), vehicle: saline with Tween-80.

The values below come from PubChem BioAssay AID330 (DTP/NCI, 2004).

The list shows only some results of the screen, not a fair sample: it is rich in T/C values a quarter to a half above the control, in often repeated tests (any T/C) and in doses without a T/C. Other doses and runs of a compound stand elsewhere. T/C: endpoint of the treated group in % of that of the vehicle group. Some doses have a count of surviving animals in place of a T/C: the source holds a T/C of zero for them, seemingly a mark for toxic or unscored doses. Some survivor counts are full or nearly so, which does not show that the dose was tolerated: the source hardly ever lists a survival T/C far under the control, and the zero likely stands for such cases as well. Counts of survivors are from the toxicity check (mostly the fifth day) where no day follows; animals may have died later. Schedules are NCI's codes, taken here to give the interval after Q, in days (D) or hours (H), and the number of doses after X. Some entries were tested several times; the values are given in rising order. For survival time, this PubChem deposit counts one and a half times the control or more as active, and values a quarter to a half above the control carry no call in these data; other NCI protocols may use other cut-offs.

Regarding `COc1cc2cc(-c3ccccn3)nc(N)c2cc1OC`, the survivor count under setting [1] was 3 of 6.

As to `CCP(CC)(c1ccccc1)=c1c(=O)c(Cl)c(Cl)c(=O)c1=O`, the survivor count is recorded as 1 of 6 (dose: 50.0 mg/kg/injection, schedule: Q01DX005 (ip), vehicle: Klucel (hydroxypropylcellulose) (HPC)); 0 of 6 (dose: 100.0 mg/kg/injection, schedule: Q01DX005 (ip), vehicle: Klucel (hydroxypropylcellulose) (HPC)); 0 of 6 (dose: 200.0 mg/kg/injection, schedule: Q01DX005 (ip), vehicle: Klucel (hydroxypropylcellulose) (HPC)).

For `c1ccc(C2=NNC(c3ccccc3)=NN2)cc1`, the survivor count is recorded as 6 of 6 (dose: 3.12 mg/kg/injection, schedule: Q01DX009 (ip), vehicle: saline with Tween-80); 6 of 6 (dose: 6.25 mg/kg/injection, schedule: Q01DX009 (ip), vehicle: saline with Tween-80); 6 of 6 (dose: 12.5 mg/kg/injection, schedule: Q01DX009 (ip), vehicle: saline with Tween-80).

Regarding `CN1CCC(/C=C/c2ccccc2)CN1` (stereo unspecified) (tested in a mixture with another compound), the survivor count under setting [2] is 0 of 6.

In the case of `CC(C)=NNC(=O)C1CCN1Cc1ccccc1` (stereo unspecified), the T/C is 126 % of control under setting [3] and 128 % of control (dose: 200.0 mg/kg/injection, schedule: Q01DX001 (ip), vehicle: saline with Tween-80). Moreover, the survivor count (dose: 400.0 mg/kg/injection, schedule: Q01DX001 (ip), vehicle: saline with Tween-80) is 2 of 6.

Turning to `CCOC(=O)Cn1/c(=N/N=C/c2ccc([N+](=O)[O-])o2)sc2cc(OC)ccc21`, the survivor count was 6 of 6 under setting [4]; 6 of 6 under setting [5]; 5 of 6 (dose: 60.0 mg/kg/injection, schedule: Q01DX005 (ip), vehicle: Klucel (hydroxypropylcellulose) (HPC)); 6 of 6 under setting [6]; 4 of 6 (dose: 240.0 mg/kg/injection, schedule: Q01DX005 (ip), vehicle: Klucel (hydroxypropylcellulose) (HPC)).

For `COC1C(CO)OC(n2c3c(Cl)cccc3c3c4c(c5c6cccc(Cl)c6[nH]c5c32)C(=O)NC4=O)C(O)C1O` (stereo unspecified), the T/C by setting is: (dose: 12.5 mg/kg/injection, schedule: Q01DX005 (ip), vehicle: distilled water + Tween-80) 135 % of control; (dose: 25.0 mg/kg/injection, schedule: Q01DX005 (ip), vehicle: distilled water + Tween-80) 141 % of control.

Regarding `CC(C)NC(=O)OCCS(=O)c1c(Cl)c(Cl)nn1C` (stereo unspecified), the survivor count under setting [1] is given as 3 of 6.

For the compound `COc1cccc2c1C(=O)c1c(O)c3c(c(O)c1C2=O)C[C@@](O)(C(C)=O)[C@@H](OC)[C@@H]3OC1CC(N)C(O)C(C)O1` (stereo partly specified), the T/C by setting is: (dose: 9.6 mg/kg/injection, schedule: Q04DX003 (ip), vehicle: water) 138 % of control; (dose: 10.0 mg/kg/injection, schedule: Q04DX003 (ip), vehicle: water) 133 % of control; (dose: 20.0 mg/kg/injection, schedule: Q04DX003 (ip), vehicle: water) 133 % of control; (dose: 40.0 mg/kg/injection, schedule: Q04DX003 (ip), vehicle: water) 149 % of control.

Consider `CC[C@]12CN3CCc4c([nH]c5ccccc45)[C@@](C(=O)OC)(c4cc5c(cc4OC)N(C=O)[C@H]4[C@@](O)(C(=O)OC)[C@H](OC(C)=O)[C@]6(CC)C=CCN7CC[C@]54[C@@H]76)C[C@H](C3)[C@H]1O2`, for which the T/C is 142 % of control (dose: 1.0 mg/kg/injection, schedule: Q01DX009 (ip), vehicle: saline); 131 and 141 % of control (dose: 2.0 mg/kg/injection, schedule: Q01DX009 (ip), vehicle: saline); 148 % of control (dose: 4.0 mg/kg/injection, schedule: Q01DX009 (ip), vehicle: saline).

Regarding `Cc1cccc(C(=O)CCN(C)C)c1`, the survivor count is 4 of 6 under setting [7] and 0 of 6 under setting [2].

With `CCn1c(Cl)c(/C=C2/N=C(c3ccccc3)OC2=O)c2ccccc21`, the survivor count reads like this: under setting [3], 6 of 6; (dose: 200.0 mg/kg/injection, schedule: Q01DX001 (ip), vehicle: Klucel (hydroxypropylcellulose) (HPC)) 6 of 6.

For the compound `Cc1ccc(N(CN2C(=O)CCC2=O)CS(=O)(=O)c2ccc(Cl)cc2)cc1`, the survivor count under setting [6] is reported as 5 of 6.

Consider `O=C1OC(=O)[C@H]2[C@@H]1[C@H]1C=C[C@@H]2OC1=O`, for which the T/C under setting [7] was 135 % of control.

Regarding `O=[N+]([O-])/N=c1/nc2scc(-c3ccc([N+](=O)[O-])cc3)n2s1`, the survivor count under setting [4] is recorded as 6 of 6; the survivor count under setting [5] is 6 of 6; the survivor count (dose: 60.0 mg/kg/injection, schedule: Q01DX005 (ip), vehicle: saline with Tween-80) was 6 of 6; the survivor count (dose: 120.0 mg/kg/injection, schedule: Q01DX005 (ip), vehicle: saline with Tween-80) was 5 of 6 and 6 of 6.

As for `CSC(=S)N/N=C(/C)CC(C)C`, the survivor count is reported as 1 of 6 under setting [8], 3 of 6 under setting [9] and 0 of 6 under setting [10].

As for `O=C(Nc1nc2ccc([N+](=O)[O-])cc2s1)C(F)(F)C(F)(F)F`, the survivor count is 4 of 6 under setting [8], 0 of 6 under setting [9] and 0 of 6 under setting [10].

Turning to `CCOP(=O)(Cc1cc(=O)oc2cc(OC)ccc12)OCC`, the survivor count (dose: 400.0 mg/kg/injection, schedule: Q01DX001 (ip), vehicle: saline) is reported as 3 of 6.

Regarding `CN(Cc1ccc2nc(N)[nH]c(=O)c2c1)c1ccc(C(=O)NC(CCC(=O)O)C(=O)O)cc1` (stereo unspecified), under setting [11], the survivor count was 3 of 6.

Regarding `CC(=O)/C(=C\c1ccc(/C=C(\C(C)=O)C(=O)CCN(C)C)cc1)C(=O)CCN(C)C`, the T/C by setting is: (dose: 100.0 mg/kg/injection, schedule: Q01DX005 (ip), vehicle: saline with Tween-80) 127 % of control; under setting [11], 135 % of control.
